Results on 21 molecules are retold here after the supplement of paper PMC10032668.

Amino acid sequences for entries named in this document (tags omitted).
RUVBL2, Q9Y230, UniProt Q9Y230, whole entry: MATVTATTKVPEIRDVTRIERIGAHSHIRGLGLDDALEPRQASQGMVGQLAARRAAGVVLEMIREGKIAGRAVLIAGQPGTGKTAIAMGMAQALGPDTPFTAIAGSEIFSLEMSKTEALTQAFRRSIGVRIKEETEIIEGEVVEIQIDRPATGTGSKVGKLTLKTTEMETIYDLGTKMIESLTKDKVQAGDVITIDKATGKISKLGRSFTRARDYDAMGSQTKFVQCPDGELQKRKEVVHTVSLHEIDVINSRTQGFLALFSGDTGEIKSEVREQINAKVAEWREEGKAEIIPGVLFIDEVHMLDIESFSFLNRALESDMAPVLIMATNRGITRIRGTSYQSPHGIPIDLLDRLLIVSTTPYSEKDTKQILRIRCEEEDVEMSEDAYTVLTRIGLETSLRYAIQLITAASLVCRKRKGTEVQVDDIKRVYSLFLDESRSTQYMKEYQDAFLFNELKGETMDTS
HBA1, P69905, UniProt P69905, whole entry: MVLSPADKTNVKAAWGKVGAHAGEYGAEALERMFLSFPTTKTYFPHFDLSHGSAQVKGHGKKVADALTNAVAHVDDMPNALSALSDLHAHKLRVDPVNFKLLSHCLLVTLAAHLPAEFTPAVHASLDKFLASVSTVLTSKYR
MECP2, P51608, UniProt P51608, whole entry: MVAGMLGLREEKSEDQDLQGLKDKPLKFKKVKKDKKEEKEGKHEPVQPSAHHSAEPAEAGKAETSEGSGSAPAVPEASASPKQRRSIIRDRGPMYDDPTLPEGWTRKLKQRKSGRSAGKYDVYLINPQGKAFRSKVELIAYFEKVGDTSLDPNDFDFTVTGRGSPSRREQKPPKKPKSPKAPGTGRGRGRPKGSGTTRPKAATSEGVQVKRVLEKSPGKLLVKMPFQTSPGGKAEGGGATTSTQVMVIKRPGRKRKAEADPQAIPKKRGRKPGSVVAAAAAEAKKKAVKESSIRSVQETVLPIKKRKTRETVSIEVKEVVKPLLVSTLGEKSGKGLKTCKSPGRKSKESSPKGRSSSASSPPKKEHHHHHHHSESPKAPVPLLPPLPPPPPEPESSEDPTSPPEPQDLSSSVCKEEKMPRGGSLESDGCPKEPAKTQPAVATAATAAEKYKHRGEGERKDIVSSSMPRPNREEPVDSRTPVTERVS
NDUFA11, Q86Y39, UniProt Q86Y39, whole entry: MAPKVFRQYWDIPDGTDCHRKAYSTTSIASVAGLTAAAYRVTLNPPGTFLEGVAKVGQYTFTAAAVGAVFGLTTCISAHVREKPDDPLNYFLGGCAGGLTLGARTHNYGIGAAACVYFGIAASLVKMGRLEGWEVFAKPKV
NDUFA10, O95299, UniProt O95299, whole entry: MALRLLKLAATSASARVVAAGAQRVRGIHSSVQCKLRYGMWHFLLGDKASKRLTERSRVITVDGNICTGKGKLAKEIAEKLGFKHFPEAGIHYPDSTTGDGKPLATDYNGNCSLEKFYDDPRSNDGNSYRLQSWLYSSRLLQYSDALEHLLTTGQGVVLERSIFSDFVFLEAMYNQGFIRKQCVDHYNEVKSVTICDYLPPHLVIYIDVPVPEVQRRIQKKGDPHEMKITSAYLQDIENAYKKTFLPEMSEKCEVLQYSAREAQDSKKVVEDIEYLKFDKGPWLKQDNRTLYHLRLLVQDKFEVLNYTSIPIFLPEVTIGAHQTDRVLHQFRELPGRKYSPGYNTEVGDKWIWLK
DYNLL1, P63167, UniProt P63167, whole entry: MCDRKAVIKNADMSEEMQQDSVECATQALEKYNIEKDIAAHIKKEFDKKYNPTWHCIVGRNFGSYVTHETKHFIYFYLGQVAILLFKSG
MCM2, P49736, UniProt P49736, whole entry: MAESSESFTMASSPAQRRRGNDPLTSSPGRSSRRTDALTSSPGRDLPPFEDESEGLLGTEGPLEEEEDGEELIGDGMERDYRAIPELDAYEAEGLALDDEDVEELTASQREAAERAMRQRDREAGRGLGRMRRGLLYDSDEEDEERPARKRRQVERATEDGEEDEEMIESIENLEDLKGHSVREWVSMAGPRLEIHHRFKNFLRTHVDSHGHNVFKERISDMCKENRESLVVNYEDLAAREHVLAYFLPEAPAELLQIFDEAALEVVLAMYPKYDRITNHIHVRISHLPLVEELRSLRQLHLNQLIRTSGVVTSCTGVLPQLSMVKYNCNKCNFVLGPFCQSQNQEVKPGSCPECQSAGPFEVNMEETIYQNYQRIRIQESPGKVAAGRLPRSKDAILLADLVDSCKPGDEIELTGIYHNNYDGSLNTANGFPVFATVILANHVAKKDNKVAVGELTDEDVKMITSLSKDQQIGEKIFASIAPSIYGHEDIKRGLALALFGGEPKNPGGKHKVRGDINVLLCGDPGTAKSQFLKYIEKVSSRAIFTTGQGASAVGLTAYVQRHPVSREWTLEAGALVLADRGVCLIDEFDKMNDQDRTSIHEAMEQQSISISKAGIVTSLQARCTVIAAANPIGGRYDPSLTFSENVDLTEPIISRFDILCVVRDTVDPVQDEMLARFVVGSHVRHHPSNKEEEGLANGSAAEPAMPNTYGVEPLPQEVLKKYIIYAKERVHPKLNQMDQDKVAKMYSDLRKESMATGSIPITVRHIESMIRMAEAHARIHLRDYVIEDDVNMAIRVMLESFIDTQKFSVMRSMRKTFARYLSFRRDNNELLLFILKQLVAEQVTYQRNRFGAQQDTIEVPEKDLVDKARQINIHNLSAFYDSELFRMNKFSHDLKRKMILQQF
NELFE, P18615, UniProt P18615, whole entry: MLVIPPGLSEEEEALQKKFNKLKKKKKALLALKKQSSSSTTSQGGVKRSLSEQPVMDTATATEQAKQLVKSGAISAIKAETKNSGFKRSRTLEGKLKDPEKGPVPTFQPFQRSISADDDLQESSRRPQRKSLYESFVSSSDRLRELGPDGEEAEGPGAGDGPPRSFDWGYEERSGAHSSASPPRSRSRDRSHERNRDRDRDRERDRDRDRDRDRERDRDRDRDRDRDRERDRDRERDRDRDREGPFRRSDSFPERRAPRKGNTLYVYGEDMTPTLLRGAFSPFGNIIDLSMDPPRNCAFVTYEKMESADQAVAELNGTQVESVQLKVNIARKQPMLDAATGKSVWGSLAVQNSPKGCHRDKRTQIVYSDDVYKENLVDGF
ITGB1, P05556, UniProt P05556, whole entry: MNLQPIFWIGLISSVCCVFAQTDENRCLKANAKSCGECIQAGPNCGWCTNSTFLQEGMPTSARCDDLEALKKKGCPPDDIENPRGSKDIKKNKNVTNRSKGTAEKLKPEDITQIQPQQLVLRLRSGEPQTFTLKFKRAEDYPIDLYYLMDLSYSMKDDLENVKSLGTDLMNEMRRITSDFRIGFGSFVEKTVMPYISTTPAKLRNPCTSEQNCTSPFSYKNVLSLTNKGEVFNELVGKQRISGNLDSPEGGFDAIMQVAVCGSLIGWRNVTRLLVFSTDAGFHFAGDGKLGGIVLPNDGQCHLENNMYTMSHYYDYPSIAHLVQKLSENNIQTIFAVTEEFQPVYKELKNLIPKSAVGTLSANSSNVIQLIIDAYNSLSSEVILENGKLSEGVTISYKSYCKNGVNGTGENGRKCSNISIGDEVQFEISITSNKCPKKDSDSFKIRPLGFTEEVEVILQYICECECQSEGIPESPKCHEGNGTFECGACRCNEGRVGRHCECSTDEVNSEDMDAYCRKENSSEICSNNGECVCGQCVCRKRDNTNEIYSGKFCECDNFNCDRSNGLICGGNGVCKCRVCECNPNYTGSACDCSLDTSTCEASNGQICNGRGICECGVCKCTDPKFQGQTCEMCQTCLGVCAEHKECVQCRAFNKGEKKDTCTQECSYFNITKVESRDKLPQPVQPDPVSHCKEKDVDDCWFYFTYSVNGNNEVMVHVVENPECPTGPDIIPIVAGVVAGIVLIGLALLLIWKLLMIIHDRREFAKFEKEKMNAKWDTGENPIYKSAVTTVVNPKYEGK
IK, Q13123, UniProt Q13123, whole entry: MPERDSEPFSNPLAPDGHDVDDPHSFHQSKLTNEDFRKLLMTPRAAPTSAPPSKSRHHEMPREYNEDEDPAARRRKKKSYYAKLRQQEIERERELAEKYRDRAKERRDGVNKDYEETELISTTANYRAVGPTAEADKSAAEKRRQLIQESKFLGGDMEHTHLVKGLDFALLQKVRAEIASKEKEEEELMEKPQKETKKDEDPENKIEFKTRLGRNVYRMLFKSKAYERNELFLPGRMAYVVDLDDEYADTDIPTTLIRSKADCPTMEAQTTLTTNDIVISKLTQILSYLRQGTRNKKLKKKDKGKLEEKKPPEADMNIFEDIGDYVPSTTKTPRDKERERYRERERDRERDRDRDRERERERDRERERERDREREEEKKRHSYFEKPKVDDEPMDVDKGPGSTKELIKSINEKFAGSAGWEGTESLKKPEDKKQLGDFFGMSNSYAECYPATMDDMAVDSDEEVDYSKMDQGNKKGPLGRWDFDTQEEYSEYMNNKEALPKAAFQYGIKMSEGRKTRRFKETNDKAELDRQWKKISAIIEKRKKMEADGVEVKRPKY

The other results are listed elsewhere or left out. Only hits are listed; about a third recur on repeated control peptides.

Assay in all cases: PRISMA enrichment of interactor (LFQ) in peptide spot vs all other peptide spots (log2 fold change); higher = stronger / more specific binding of the interactor to the peptide
One test has as its target NCDN, Q9UBB6. Here is the method: (§1)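 PRISMA: 221 full-length sORF-encoded peptides (3-15 aa), plus SOS1/GLUT1 control peptides, were spot-synthesized on cellulose membranes in triplicate. Membranes were incubated with HEK293T lysate, and bound proteins were identified by LC-MS/MS with LFQ. Enrichment is the log2 fold change versus all other peptide spots; only significant interactors are listed (cutoff c=6, x0=2.8).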

For another test, the target named is SSNA1, O43805. Here is the method:
as §1

Another test has as its target EXOC1, Q9NV70. Here is the method: as §1
In the next test the target is MRPL53, Q96EL3. As to the method:
as §1

In another test the target is SPTSSA, Q969W0. Here is the method:
as §1

Another test has as its target GPN2, Q9H9Y4. Here is the method: as §1
A further test has as its target IARS2, Q9NSE4. As to the method: as §1
Another test addresses LSR, Q86X29. Here is the method: as §1
For the next test, the target named is RBM7, Q9Y580. Here is the method:
as §1

A further test has as its target RUVBL2, Q9Y230. Here is the method:
as §1

The next test addresses SLC27A4, Q6P1M0. Here is the method: as §1
The next test concerns the target HBA1, P69905. Here is the method: as §1
In the next test the target is OBSL1, O75147. Here is the method:
as §1

Another test addresses POLR3E, Q9NVU0. Here is the method: as §1
A further test concerns the target UTP4, Q969X6. As to the method:
as §1

For a further test, the target named is WBP11, Q9Y2W2. Here is the method:
as §1

A further test deals with MRPS15, P82914. As to the method:
as §1

The target in another test is LIN7C, Q9NUP9. As to the method:
as §1

For the next test, the target named is TSNAX, Q99598. Here is the method: as §1
Another test concerns the target KDM1A, O60341. As to the method:
as §1

A further test concerns the target MECP2, P51608. As to the method:
as §1

The target in a further test is MT-ATP8, P03928. Here is the method:
as §1

In a further test the target is NDUFA11, Q86Y39. Here is the method:
as §1

A further test deals with MRS2, Q9HD23. Here is the method: as §1
For another test, the target named is NUDT16, Q96DE0. Here is the method: as §1
For the next test, the target named is RRP9, O43818. As to the method: as §1
Another test deals with NDUFA10, O95299. Here is the method: as §1
Another test concerns the target DYNLL1, P63167. Here is the method:
as §1

Another test has as its target MCM2, P49736. As to the method:
as §1

The target of another test is NUP85, Q9BW27. Here is the method:
as §1

The target of the next test is NELFE, P18615. Here is the method:
as §1

For the next test, the target named is POLDIP2, Q9Y2S7. As to the method: as §1
The target of a further test is STAU2, Q9NUL3. As to the method: as §1
For the next test, the target named is WRNIP1, Q96S55. As to the method:
as §1

For another test, the target named is KPNA6, O60684. Here is the method: as §1
The target in the next test is MARK2, Q7KZI7. As to the method: as §1
The target in a further test is POLD2, P49005. As to the method: as §1
In the next test the target is HNRNPUL2-BSCL2. Here is the method:
as §1

For another test, the target named is OXA1L, Q15070. As to the method:
as §1

The target in the next test is ZCCHC3, Q9NUD5. As to the method: as §1
For the next test, the target named is ZRANB2, O95218. Here is the method: as §1
Another test concerns the target ETHE1, O95571. As to the method:
as §1

A further test concerns the target GET4, Q7L5D6. Here is the method: as §1
The target in another test is MPP2, Q14168. As to the method:
as §1

In another test the target is EMILIN1, Q9Y6C2. Here is the method: as §1
Another test deals with FLII, Q13045. Here is the method:
as §1

For the next test, the target named is NCBP3, Q53F19. Here is the method:
as §1

Another test has as its target F13A1, P00488. As to the method: as §1
Another test has as its target FDX1, P10109. As to the method:
as §1

The target of another test is GC, P02774. As to the method:
as §1

The next test addresses ITGB1, P05556. Here is the method:
as §1

In another test the target is SEPTIN8, Q92599. As to the method: as §1
The target in another test is TRAF2, Q12933. Here is the method: as §1
For a further test, the target named is TSFM, P43897. Here is the method:
as §1

A further test has as its target LYZ, P61626. As to the method:
as §1

Another test has as its target RCN2, Q14257. Here is the method:
as §1

For another test, the target named is IK, Q13123. Here is the method:
as §1

For the next test, the target named is LAMP1, P11279. Here is the method: as §1
A further test concerns the target LYPLA1, O75608. As to the method: as §1
The target of a further test is MPHOSPH10, O00566. Here is the method:
as §1

The next test has as its target NCOR2, Q9Y618. As to the method:
as §1

Another test addresses SCYL1, Q96KG9. As to the method:
as §1

With MHRRMLAAQ [ADCY7], the “PRISMA enrichment of interactor (log2)” value is 5.17 with NCDN, Q9UBB6 and 4.24 with SSNA1, O43805.

With MALARKLPRC [AIP], the “PRISMA enrichment of interactor (log2)” value with EXOC1, Q9NV70 came to 3.79; in the test with MRPL53, Q96EL3, 5.28; in the test with SPTSSA, Q969W0, 9.91.

MVSVSAFPA [PPP6R3]: the “PRISMA enrichment of interactor (log2)” value came to 4.63 in the test with GPN2, Q9H9Y4 and 7.13 in the test with IARS2, Q9NSE4.

As to MRSNLIRETC [AASDH], the “PRISMA enrichment of interactor (log2)” value with LSR, Q86X29 amounted to 4.94; in the test with RBM7, Q9Y580, 7.69; with RUVBL2, Q9Y230 it was 5.32; with SLC27A4, Q6P1M0, 4.73.

Consider MKTKLNRLLPNIY [METTL7A], for which the “PRISMA enrichment of interactor (log2)” value in the test with HBA1, P69905 turned out to be 5.06; with OBSL1, O75147, 6.15; in the test with POLR3E, Q9NVU0 it was 4.59; with UTP4, Q969X6, 4.18; with WBP11, Q9Y2W2 it was 5.36.

For the molecule MAGGV [GNB1], the “PRISMA enrichment of interactor (log2)” value with MRPS15, P82914 turned out to be 11.5.

Turning to MLEPPAGASGQQ [PGF], the “PRISMA enrichment of interactor (log2)” value with LIN7C, Q9NUP9 was determined as 4.75; with TSNAX, Q99598 it was 4.72.

In the case of MARLL [MAST4], the “PRISMA enrichment of interactor (log2)” value with KDM1A, O60341 was determined as 5.2; with MECP2, P51608, 4.67; with MT-ATP8, P03928 it was 4.67; in the test with NDUFA11, Q86Y39 it was 4.45.

For the molecule MEIRGTGS [PPP1R12B], the “PRISMA enrichment of interactor (log2)” value in the test with MRS2, Q9HD23 is 5.79; in the test with NUDT16, Q96DE0, 5.42; with RRP9, O43818, 5.01.

With MRQFGICGRVAVAG [MFN1], the “PRISMA enrichment of interactor (log2)” value in the test with NDUFA10, O95299 was 7.54.

Take MQPGLQGLDRGCQAL [DMPK]: the “PRISMA enrichment of interactor (log2)” value came to 4.65 in the test with DYNLL1, P63167; 4.91 in the test with MCM2, P49736; 5.39 with NCDN, Q9UBB6; 5.64 with NUP85, Q9BW27.

Turning to MMRDLGTLLSPVCS [EI24], the “PRISMA enrichment of interactor (log2)” value with NELFE, P18615 came to 4.77; with POLDIP2, Q9Y2S7, 6.55; in the test with STAU2, Q9NUL3, 5.64; with WRNIP1, Q96S55, 5.42.

With MVLMGQVP [CRADD], the “PRISMA enrichment of interactor (log2)” value with KPNA6, O60684 came out at 5.9.

Regarding MLAWSRN [PLXNB2], the “PRISMA enrichment of interactor (log2)” value was determined as 4.49 with MARK2, Q7KZI7 and 3.9 in the test with POLD2, P49005.

Regarding MTFSCARRECYFR [LINC00909], the “PRISMA enrichment of interactor (log2)” value came out at 6.01 in the test with HNRNPUL2-BSCL2; 10.1 in the test with OXA1L, Q15070; 4.2 with ZCCHC3, Q9NUD5; 5.21 with ZRANB2, O95218.

With MMSTDEETEAWRG [ZNF544], the “PRISMA enrichment of interactor (log2)” value was 3.87 in the test with ETHE1, O95571; 5.59 with GET4, Q7L5D6; 4.48 with MPP2, Q14168.

As to MARVLDRWT [COQ4], the “PRISMA enrichment of interactor (log2)” value in the test with EMILIN1, Q9Y6C2 came to 5.9; with FLII, Q13045, 5.61; in the test with NCBP3, Q53F19, 5.38.

On to MVEKEVGRICAEEA [ZNF146], for which the “PRISMA enrichment of interactor (log2)” value in the test with F13A1, P00488 was determined as 5.51; with FDX1, P10109 it was 4.77; with GC, P02774, 7.66; with ITGB1, P05556 it was 4.68; with SEPTIN8, Q92599, 4.28; with TRAF2, Q12933, 5.32. The “PRISMA enrichment of interactor (log2)” value with TSFM, P43897 stood at 7.82.

As for MVQAELRAIPR [TMEM184C], the “PRISMA enrichment of interactor (log2)” value stood at 4.46 with LYZ, P61626 and 6.42 in the test with RCN2, Q14257.

On to MSKEGVVG [CLCN3], for which the “PRISMA enrichment of interactor (log2)” value in the test with IK, Q13123 was determined as 5.11; with LAMP1, P11279, 5.38; with LYPLA1, O75608, 4.9.

With MGCWVDGAGK [TRIM69], the “PRISMA enrichment of interactor (log2)” value in the test with MPHOSPH10, O00566 worked out at 5.35; with NCOR2, Q9Y618, 5.71; with SCYL1, Q96KG9, 5.54.
